From publication PMC9654972
No constants are given. Whether binding was seen depends on the method and setting. Binding seen in cells or lysates may run through a third protein. Here binding means that the protein was enriched with, or labelled near, the bait; the list need not be complete.

Sequences of proteins named here, by UniProt entry; tags and fusion partners are left off. A change or cut given only in a name is not applied to a line headed by its entry. Residues count along the entry.
UniProt P06733: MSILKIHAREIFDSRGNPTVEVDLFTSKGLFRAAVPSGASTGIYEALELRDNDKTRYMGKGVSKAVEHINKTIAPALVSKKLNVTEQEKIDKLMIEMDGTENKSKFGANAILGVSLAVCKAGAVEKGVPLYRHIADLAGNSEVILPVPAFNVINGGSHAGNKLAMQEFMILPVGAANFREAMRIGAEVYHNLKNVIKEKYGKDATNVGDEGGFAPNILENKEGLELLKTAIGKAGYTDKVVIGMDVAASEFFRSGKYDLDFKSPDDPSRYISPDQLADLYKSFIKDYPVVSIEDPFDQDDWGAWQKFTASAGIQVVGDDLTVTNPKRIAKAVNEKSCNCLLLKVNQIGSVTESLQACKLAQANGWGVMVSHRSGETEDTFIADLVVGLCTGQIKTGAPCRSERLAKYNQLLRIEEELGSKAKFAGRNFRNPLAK
UniProt P02656, residues 21-99: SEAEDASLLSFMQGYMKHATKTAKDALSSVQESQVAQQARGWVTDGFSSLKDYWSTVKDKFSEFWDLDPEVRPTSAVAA
UniProt P00915: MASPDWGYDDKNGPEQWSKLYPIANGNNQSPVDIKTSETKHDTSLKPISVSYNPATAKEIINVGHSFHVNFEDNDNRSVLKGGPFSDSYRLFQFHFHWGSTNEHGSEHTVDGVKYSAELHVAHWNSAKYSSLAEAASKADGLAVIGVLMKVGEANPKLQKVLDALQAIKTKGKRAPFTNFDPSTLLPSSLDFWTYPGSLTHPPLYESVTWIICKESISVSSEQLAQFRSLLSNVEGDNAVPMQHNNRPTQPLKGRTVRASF
UniProt A0A0C4DH38: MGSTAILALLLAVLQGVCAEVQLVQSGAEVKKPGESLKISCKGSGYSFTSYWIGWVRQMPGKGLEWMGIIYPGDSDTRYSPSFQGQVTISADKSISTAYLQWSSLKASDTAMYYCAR
UniProt P02042: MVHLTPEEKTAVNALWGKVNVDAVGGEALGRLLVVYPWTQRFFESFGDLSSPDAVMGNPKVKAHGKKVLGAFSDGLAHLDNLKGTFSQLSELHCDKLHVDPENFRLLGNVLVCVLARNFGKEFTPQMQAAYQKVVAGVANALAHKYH

Biological target: GST-ENO1 (UniProt P06733)
Assay: affinity purification with mass spectrometry; GST-ENO1 from E. coli lysate supernatant held on GST-resins, washed, incubated with postoperative lymphatic drainage of metastatic OSCC patients at 4 °C overnight; eluted with 20 mM reduced glutathione; LC-MS/MS (n = 4); only the target purified

Molecule	binding
Apolipoprotein C-III (from UniProt P02656 21-99)	binds
Lysozyme C (enzyme, UniProt P61626 19-148) KVFERCELARTLKRLGMDGYRGISLANWMCLAKWESGYNTRATNYNAGDRSTDYGIFQINSRYWCNDGKTPGAVNACHLSCSALLQDNIADAVACAKRVVRDPQGIRAWVAWRNRCQNRDVRQYVQGCGV	binds

The next lines start with the values.

binding	Molecule
binds	Carbonic anhydrase 1 (from UniProt P00915 1-261) (enzyme)
binds	Immunoglobulin heavy variable 5-51 (from UniProt A0A0C4DH38)
binds	Hemoglobin subunit delta (from UniProt P02042 1-147)
